Reference: patent publication US20050181997A1
No constants are given. Whether binding was seen depends on the method and setting. Some results given as binding are weak or reduced against the parent protein; the word gives no strength. One block for each binder: values may come before it.

Protein sequences, listed by entry. Tags and fused reporters are not part of them. Residues count along the entry.
UniProt P01012, residues 2-386: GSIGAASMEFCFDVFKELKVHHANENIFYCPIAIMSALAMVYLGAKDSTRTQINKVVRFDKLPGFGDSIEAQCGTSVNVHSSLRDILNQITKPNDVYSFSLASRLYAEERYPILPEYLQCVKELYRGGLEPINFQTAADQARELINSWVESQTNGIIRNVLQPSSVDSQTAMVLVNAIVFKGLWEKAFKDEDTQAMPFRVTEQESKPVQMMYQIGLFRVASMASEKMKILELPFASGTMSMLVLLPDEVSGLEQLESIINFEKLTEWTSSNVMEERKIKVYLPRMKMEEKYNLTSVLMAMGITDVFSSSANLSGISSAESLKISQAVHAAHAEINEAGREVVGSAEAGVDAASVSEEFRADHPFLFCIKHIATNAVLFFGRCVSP

What was measured:
[1] = molecular target: ovalbumin (immobilised: ovalbumin-Sepharose / ovalbumin gel affinity column, Sigma) (UniProt P01012); assay: affinity chromatography on ovalbumin gel, elution with 200 mM trehalose
[2] = molecular target: ovalbumin (immobilised: ovalbumin-Sepharose / ovalbumin gel affinity column, Sigma) (UniProt P01012); assay: affinity capture on ovalbumin-Sepharose, elution with 200 mM trehalose

binding [1]: binds
B1: YamFRIL from Sphenostylis stenocarpa (yam bean) (protein)
chain: AQSVSFTFTKFDSDQKDLMFQGHTISSSNVIQLTKLDSNGNPVSTSVGRVLYSAPLRLWESSTVVSTFETTFTFQISTPYTSPPGDGLAFFLAPYDTVIPPNSAGNLLGLFPNLNALRNSTTSKETTIDVNAASNNVVAVEFDTYPNDNIGDPRYKHIGIDVNSIRSKATVAWDWQNGKTATAHISYNSASKRLSVTTFYPGGKAVSLSHDVELTQVLPQWIRVGFSASTGLEK

binding [2]: binds
B2: recombinant Pv-FRIL from transgenic tobacco (product of pM-SpPv-FRIL) (protein)
chain: AQSLSFNFTKFDLDQKDLIFQGDATSTNNVLQLTKLDSGGNPVGASVGRVLFSAPFHLWENSMAVSSFETNLTIQISTPHPYYAADGFAFFLAPHDTVIPPNSWGKFLGLYSNVFRNSPTSENQSFGDVNTDSRVVAVEFDTFPNANIDPNYRHIGIDVNSIKSKETARWEWQNGKTATARISYNSASKKSTVTTFYPGMEVVALSHDVDLHAELPEWVRVGLSASTGEEKQKNTIISWSFTSSLKNNEVKEPKEDMYIANVVRSYTWINDVLSYISNK
